Assay results taken from article doi:10.1101/2019.12.13.867358 (bioRxiv, 2019).
Substitutions are numbered along the chain they refer to. Names may count otherwise. No constants are given. Whether binding was seen depends on the method and setting. Some binding calls cover weakened binding; strength is not graded here.

T1: Brn1 (S. cerevisiae) (UniProt P38170)
T1 sequence: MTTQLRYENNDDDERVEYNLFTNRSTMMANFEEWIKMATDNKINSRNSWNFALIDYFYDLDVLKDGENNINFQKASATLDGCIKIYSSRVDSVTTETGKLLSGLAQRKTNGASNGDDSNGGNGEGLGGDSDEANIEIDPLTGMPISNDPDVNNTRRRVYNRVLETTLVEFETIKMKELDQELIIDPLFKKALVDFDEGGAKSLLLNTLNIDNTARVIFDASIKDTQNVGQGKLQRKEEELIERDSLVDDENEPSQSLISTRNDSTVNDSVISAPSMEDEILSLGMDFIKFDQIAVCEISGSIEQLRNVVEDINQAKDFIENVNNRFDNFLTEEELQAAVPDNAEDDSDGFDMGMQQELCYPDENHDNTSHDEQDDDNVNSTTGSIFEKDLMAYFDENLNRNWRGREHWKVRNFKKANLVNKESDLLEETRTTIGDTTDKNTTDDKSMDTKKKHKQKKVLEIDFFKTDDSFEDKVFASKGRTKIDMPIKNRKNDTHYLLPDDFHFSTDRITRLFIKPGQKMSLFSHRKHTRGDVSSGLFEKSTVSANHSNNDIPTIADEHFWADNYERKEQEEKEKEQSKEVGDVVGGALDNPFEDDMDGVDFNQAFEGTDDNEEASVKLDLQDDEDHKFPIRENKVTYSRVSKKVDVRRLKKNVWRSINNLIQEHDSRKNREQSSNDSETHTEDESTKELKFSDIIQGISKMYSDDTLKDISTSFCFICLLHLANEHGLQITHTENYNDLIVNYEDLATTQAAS

B1: Smc4 (protein, UniProt Q12267 1-1418)
chain: MSDSPLSKRQKRKSAQEPELSLDQGDAEEDSQVENRVNLSENTPEPDLPALEASYSKSYTPRKLVLSSGENRYAFSQPTNSTTTSLHVPNLQPPKTSSRGRDHKSYSQSPPRSPGRSPTRRLELLQLSPVKNSRVELQKIYDRHQSSSKQQSRLFINELVLENFKSYAGKQVVGPFHTSFSAVVGPNGSGKSNVIDSMLFVFGFRANKMRQDRLSDLIHKSEAFPSLQSCSVAVHFQYVIDESSGTSRIDEEKPGLIITRKAFKNNSSKYYINEKESSYTEVTKLLKNEGIDLDHKRFLILQGEVENIAQMKPKAEKESDDGLLEYLEDIIGTANYKPLIEERMGQIENLNEVCLEKENRFEIVDREKNSLESGKETALEFLEKEKQLTLLRSKLFQFKLLQSNSKLASTLEKISSSNKDLEDEKMKFQESLKKVDEIKAQRKEIKDRISSCSSKEKTLVLERRELEGTRVSLEERTKNLVSKMEKAEKTLKSTKHSISEAENMLEELRGQQTEHETEIKDLTQLLEKERSILDDIKLSLKDKTKNISAEIIRHEKELEPWDLQLQEKESQIQLAESELSLLEETQAKLKKNVETLEEKILAKKTHKQELQDLILDLKKKLNSLKDERSQGEKNFTSAHLKLKEMQKVLNAHRQRAMEARSSLSKAQNKSKVLTALSRLQKSGRINGFHGRLGDLGVIDDSFDVAISTACPRLDDVVVDTVECAQHCIDYLRKNKLGYARFILLDRLRQFNLQPISTPENVPRLFDLVKPKNPKFSNAFYSVLRDTLVAQNLKQANNVAYGKKRFRVVTVDGKLIDISGTMSGGGNHVAKGLMKLGTNQSDKVDDYTPEEVDKIERELSERENNFRVASDTVHEMEEELKKLRDHEPDLESQISKAEMEADSLASELTLAEQQVKEAEMAYVKAVSDKAQLNVVMKNLERLRGEYNDLQSETKTKKEKIKGLQDEIMKIGGIKLQMQNSKVESVCQKLDILVAKLKKVKSASKKSGGDVVKFQKLLQNSERDVELSSDELKVIEEQLKHTKLALAENDTNMNETLNLKVELKEQSEQLKEQMEDMEESINEFKSIEIEMKNKLEKLNSLLTYIKSEITQQEKGLNELSIRDVTHTLGMLDDNKMDSVKEDVKNNQELDQEYRSCETQDESEIKDAETSCDNYHPMNIDETSDEVSRGIPRLSEDELRELDVELIESKINELSYYVEETNVDIGVLEEYARRLAEFKRRKLDLNNAVQKRDEVKEQLGILKKKRFDEFMAGFNIISMTLKEMYQMITMGGNAELELVDSLDPFSEGVTFSVMPPKKSWRNITNLSGGEKTLSSLALVFALHKYKPTPLYVMDEIDAALDFRNVSIVANYIKERTKNAQFIVISLRNNMFELAQQLVGVYKRDNRTKSTTIKNIDILNRT
B2: Smc2 (natural protein, S. cerevisiae, UniProt P38989 1-1170, looked up)
chain: MKVEELIIDGFKSYATRTVITDWDPQFNAITGLNGSGKSNILDAICFVLGIASMSTVRASSLQDLIYKRGQAGVTKASVTIVFDNTDKSNSPIGFTNSPQISVTRQVVLGGTSKYLINGHRAPQQSVLQLFQSVQLNINNPNFLIMQGKITKVLNMKPSEILSLIEEAAGTKMFEDRREKAERTMSKKETKLQENRTLLTEEIEPKLEKLRNEKRMFLEFQSTQTDLEKTERIVVSYEYYNIKHKHTSIRETLENGETRMKMLNEFVKKTSEEIDSLNEDVEEIKLQKEKELHKEGTISKLENKENGLLNEISRLKTSLSIKVENLNDTTEKSKALESEIASSSAKLIEKKSAYANTEKDYKMVQEQLSKQRDLYKRKEELVSTLTTGISSTGAADGGYNAQLAKAKTELNEVSLAIKKSSMKMELLKKELLTIEPKLKEATKDNELNVKHVKQCQETCDKLRARLVEYGFDPSRIKDLKQREDKLKSHYYQTCKNSEYLKRRVTNLEFNYTKPYPNFEASFVHGVVGQLFQIDNDNIRYATALQTCAGGRLFNVVVQDSQTATQLLERGRLRKRVTIIPLDKIYTRPISSQVLDLAKKIAPGKVELAINLIRFDESITKAMEFIFGNSLICEDPETAKKITFHPKIRARSITLQGDVYDPEGTLSGGSRNTSESLLVDIQKYNQIQKQIETIQADLNHVTEELQTQYATSQKTKTIQSDLNLSLHKLDLAKRNLDANPSSQIIARNEEILRDIGECENEIKTKQMSLKKCQEEVSTIEKDMKEYDSDKGSKLNELKKELKLLAKELEEQESESERKYDLFQNLELETEQLSSELDSNKTLLHNHLKSIESLKLENSDLEGKIRGVEDDLVTVQTELNEEKKRLMDIDDELNELETLIKKKQDEKKSSELELQKLVHDLNKYKSNTNNMEKIIEDLRQKHEFLEDFDLVRNIVKQNEGIDLDTYRERSKQLNEKFQELRKKVNPNIMNMIENVEKKEAALKTMIKTIEKDKMKIQETISKLNEYKRETLVKTWEKVTLDFGNIFADLLPNSFAKLVPCEGKDVTQGLEVKVKLGNIWKESLIELSGGQRSLIALSLIMALLQFRPAPMYILDEVDAALDLSHTQNIGHLIKTRFKGSQFIVVSLKEGMFANANRVFRTRFQDGTSVVSIM
B3: Ycg1 (protein, UniProt Q06680 1-1035)
chain: MQDPDGIDINTKIFNSVAEVFQKAQGSYAGHRKHIAVLKKIQSKAVEQGYEDAFNFWFDKLVTKILPLKKNEIIGDRIVKLVAAFIASLERELILAKKQNYKLTNDEEGIFSRFVDQFIRHVLRGVESPDKNVRFRVLQLLAVIMDNIGEIDESLFNLLILSLNKRIYDREPTVRIQAVFCLTKFQDEEQTEHLTELSDNEENFEATRTLVASIQNDPSAEVRRAAMLNLINDNNTRPYILERARDVNIVNRRLVYSRILKSMGRKCFDDIEPHIFDQLIEWGLEDRELSVRNACKRLIAHDWLNALDGDLIELLEKLDVSRSSVCVKAIEALFQSRPDILSKIKFPESIWKDFTVEIAFLFRAIYLYCLDNNITEMLEENFPEASKLSEHLNHYILLRYHHNDISNDSQSHFDYNTLEFIIEQLSIAAERYDYSDEVGRRSMLTVVRNMLALTTLSEPLIKIGIRVMKSLSINEKDFVTMAIEIINDIRDDDIEKQEQEEKIKSKKINRRNETSVDEEDENGTHNDEVNEDEEDDNISSFHSAVENLVQGNGNVSESDIINNLPPEKEASSATIVLCLTRSSYMLELVNTPLTENILIASLMDTLITPAVRNTAPNIRELGVKNLGLCCLLDVKLAIDNMYILGMCVSKGNASLKYIALQVIVDIFSVHGNTVVDGEGKVDSISLHKIFYKVLKNNGLPECQVIAAEGLCKLFLADVFTDDDLFETLVLSYFSPINSSNEALVQAFAFCIPVYCFSHPAHQQRMSRTAADILLRLCVLWDDLQSSVIPEVDREAMLKPNIIFQQLLFWTDPRNLVNQTGSTKKDTVQLTFLIDVLKIYAQIEKKEIKKMIITNINAIFLSSEQDYSTLKELLEYSDDIAENDNLDNVSKNALDKLRNNLNSLIEEINERSETQTKDENNTANDQYSSILGNSFNKSSNDTIEHAADITDGNNTELTKTTVNISAVDNTTEQSNSRKRTRSEAEQIDTSKNLENMSIQDTSTVAKNVSFVLPDEKSDAMSIDEEDKDSESFSEVC
B4: Smc4 E1352Q (protein, UniProt Q12267 1-1418)
chain: B1 chain with E1352Q

molecular target: T1, Brn1 (S. cerevisiae); test: tandem affinity co-purification

binding, binds:
B1
B2
B3
B4
